PMC7819943, “Rice protein-binding microarrays: a tool to detect cis-acting elements near promoter regions in rice”
Some of the results follow.

The chains behind the UniProt entries cited, without tags or fusion partners.
UniProt Q0JBA9, entry or part of it: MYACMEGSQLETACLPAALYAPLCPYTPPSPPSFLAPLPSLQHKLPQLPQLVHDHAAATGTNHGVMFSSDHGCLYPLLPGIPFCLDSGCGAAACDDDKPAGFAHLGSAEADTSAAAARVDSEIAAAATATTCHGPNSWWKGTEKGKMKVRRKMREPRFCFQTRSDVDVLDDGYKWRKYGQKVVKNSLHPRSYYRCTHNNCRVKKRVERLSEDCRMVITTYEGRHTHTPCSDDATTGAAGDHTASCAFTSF

Each sequence was assayed against OsWRKY34 (Oryza sativa, UniProt Q0JBA9 1-250) (assay: protein-binding microarray (RPBM); PBS, 2% BSA, 51.3 ng/ul salmon testes DNA, 50 uM zinc acetate, 200 nM TF, 25 C, 1 h; high values mean tight binding). Settings: protein: recombinant; tags: N-terminal polyhistidine and DsRed monomer fusion (pET32a); label: CyDye5-dUTP incorporated in the synthesized complementary strand; 3' TTTTT single-stranded linker to array surface; dsDNA, one strand shown.
How it was run: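 For the binding signal, per-feature fluorescence intensity was read in arbitrary units on an Axon 4000B scanner. Before scanning, a 2% BSA-blocked custom Agilent array made double-stranded with Cy5-dUTP was washed after 1 h at 25 °C with 200 nM protein and 50 µM zinc acetate. The proteins were Ni–NTA-purified transcription factors with N-terminal polyhistidine and DsRed fusions, expressed in E. coli BL21-CodonPlus.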
In the case of “AATTAACATCACCAATCAGCAATCACCAACCTTGTCATCTCGGAGTCACCTAGTGCAG”, the binding signal is reported as 8970 fluorescence intensity (a.u.). “AAGTGTAGGTGATTCATGTTGCAGTTATCCAGTTATTTCTCGGAGTCACCTAGTGCAG” was tested, and the binding signal was 11400 fluorescence intensity (a.u.). With “GTTGTGTTATGATATATCACCTTCTAATATTAGATTATCCCGGAGTCACCTAGTGCAG” the binding signal was 8820 fluorescence intensity (a.u.). For “GAAAGCCATCTCCACTGATTTTCGGTTCGTTTGCTATTGACGGAGTCACCTAGTGCAG”, the binding signal was 8390 fluorescence intensity (a.u.). For “TTCTGTTTCTCTATTTTCCATGATAATCTTTCTGTTTCTTCGGAGTCACCTAGTGCAG”, the binding signal was 11100 fluorescence intensity (a.u.). In the case of “GTACGGGTATAATGTTTGCTTATGCAATTACTCTATGTCACGGAGTCACCTAGTGCAG”, the binding signal is reported as 8500 fluorescence intensity (a.u.). In the case of “TACTACTACTTTCCCACCCTGCCCTCACTACCTACCCACCCGGAGTCACCTAGTGCAG”, the binding signal is reported as 8300 fluorescence intensity (a.u.). With “CCGCTTGCTGCTGACTCGTCGAAAGCCATCTCCACTGATTCGGAGTCACCTAGTGCAG” the binding signal was 9000 fluorescence intensity (a.u.). For “GGCCGTCTGTAAATTTCTCCTCCCTCGATGCCGATTATTACGGAGTCACCTAGTGCAG”, the binding signal was 8490 fluorescence intensity (a.u.). “ACCGGCCAATAACAAACTCCTACTGACCAGTGTTATCCATCGGAGTCACCTAGTGCAG” was tested, and the binding signal was 8380 fluorescence intensity (a.u.). “ATCTCGGCTGTGTTTCGTTGTTGGCCTAGTGGTGGTCGGTCGGAGTCACCTAGTGCAG” was tested, and the binding signal was 9410 fluorescence intensity (a.u.). With “CTTCTCCAGCTCAGGTCACCACCTCCCTTGCTCTCTTCTTCGGAGTCACCTAGTGCAG” the binding signal was 9740 fluorescence intensity (a.u.). “CAATTCTCCATCCAGGTGCCACTCAAAGCTCACACATCGCCGGAGTCACCTAGTGCAG” was tested, and the binding signal was 8790 fluorescence intensity (a.u.). With “CGAACCTGTCTACATCGCCCGTGTCTTGTGCGTTTGCTCTCGGAGTCACCTAGTGCAG” the binding signal was 13000 fluorescence intensity (a.u.). “CCCTCTCCTCTCCCTGTTTCTCCTCATCCCTGCTTCCTCTCGGAGTCACCTAGTGCAG” was tested, and the binding signal was 9110 fluorescence intensity (a.u.). “GCCTTTTTAACTTGTGCGACCGGTGTTCCGGGATTTTGGGCGGAGTCACCTAGTGCAG” was tested, and the binding signal was 10900 fluorescence intensity (a.u.). In the case of “GCCGTTTTTCTACTCCTTTCGTAGTTATATTTTAGGACAACGGAGTCACCTAGTGCAG”, the binding signal is reported as 9940 fluorescence intensity (a.u.). With “TGACATGTTCACCTTCATCGGGCTCCTCGAGTTCTTCTACCGGAGTCACCTAGTGCAG” the binding signal was 8730 fluorescence intensity (a.u.). With “CTTGATGTTATTGTTTTTCATTTTATCTACTTTAAATATACGGAGTCACCTAGTGCAG” the binding signal was 8260 fluorescence intensity (a.u.). “TCACAGGCCATCTCTCTATCCCTAATTAAGCTATATACTCCGGAGTCACCTAGTGCAG” was tested, and the binding signal was 8820 fluorescence intensity (a.u.). “CGAACCACCCTGCGCTCTTGTCCTCGTTTGATAGTGTCGTCGGAGTCACCTAGTGCAG” was tested, and the binding signal was 10200 fluorescence intensity (a.u.). With “AACCGTTTAGGATAGCTCATCTTTTTCTTGGGCCTGATTACGGAGTCACCTAGTGCAG” the binding signal was 10500 fluorescence intensity (a.u.). In the case of “CTTACTAACCTCCTGCTTGTCTTGTCCACTCCAGTCCACACGGAGTCACCTAGTGCAG”, the binding signal is reported as 8290 fluorescence intensity (a.u.). In the case of “GCCTCGATCTCCTCCCCACCGCGCATCGCTCCTCTCCCCTCGGAGTCACCTAGTGCAG”, the binding signal is reported as 13500 fluorescence intensity (a.u.). “TGTTTAATTTCATTACTTATTTTTTTTCATTGCATTATAACGGAGTCACCTAGTGCAG” was tested, and the binding signal was 8990 fluorescence intensity (a.u.). In the case of “GCCCAGCTTGCGCACGGGGAGGGGAGGGGAGAATGGGCCGCGGAGTCACCTAGTGCAG”, the binding signal is reported as 11000 fluorescence intensity (a.u.). “ACCTTGGAAGCAAGCAACTCCATCGATCGCCTATAAATTCCGGAGTCACCTAGTGCAG” was tested, and the binding signal was 8840 fluorescence intensity (a.u.). For “TTGTGCCACTTCATTCATTGCTACCCCTAATTCTAGGCACCGGAGTCACCTAGTGCAG”, the binding signal was 8430 fluorescence intensity (a.u.). “CCTGCACGCTCCTCCATATTCCGCTGCCGTCGACGATACTCGGAGTCACCTAGTGCAG” was tested, and the binding signal was 12100 fluorescence intensity (a.u.). With “TCCTGCGATCCTGACCTGTAAAAACGCTGTTGTACCAGCTCGGAGTCACCTAGTGCAG” the binding signal was 8850 fluorescence intensity (a.u.). “CACGTTGTTGCTTGTTGCCATTATCACGCGTAGTTTATTCCGGAGTCACCTAGTGCAG” was tested, and the binding signal was 8500 fluorescence intensity (a.u.). With “TTCCTATCATGTGTTTCAAAACAATCATGATTTCATTAGCCGGAGTCACCTAGTGCAG” the binding signal was 8060 fluorescence intensity (a.u.). With “ATCTCCCACCCCACAACCTCGCCATCTCCGCCTCTCCTCGCGGAGTCACCTAGTGCAG” the binding signal was 9600 fluorescence intensity (a.u.). “TAAGCTAGCGACTCGTTCCTCTTCTCATTTTCTTTTTTTACGGAGTCACCTAGTGCAG” was tested, and the binding signal was 9470 fluorescence intensity (a.u.). In the case of “CCGATATTTAGGTTCGGTCCTTTGATTTTCGTTTTGTTTTCGGAGTCACCTAGTGCAG”, the binding signal is reported as 10300 fluorescence intensity (a.u.). For “ACTTGATGCATTTACTGGTAGCTTGGTTTGCTGATATTTTCGGAGTCACCTAGTGCAG”, the binding signal was 12500 fluorescence intensity (a.u.). For “CACCGCCCTGGACCGCCGCCGCCTCCTCGCCGCCATCGAACGGAGTCACCTAGTGCAG”, the binding signal was 9000 fluorescence intensity (a.u.). With “TTGAACTTTTATATATTTGTTCGTACTGACTTAAAAGTTACGGAGTCACCTAGTGCAG” the binding signal was 8170 fluorescence intensity (a.u.). In the case of “TCCCACTCCTCGATCCAATCCTCGCCGTCCATCCTTCCCTCGGAGTCACCTAGTGCAG”, the binding signal is reported as 8130 fluorescence intensity (a.u.). For “GCGGCGAAGCAGGGAGGAGGGAGGAGGAGGGGCGGCGGTGCGGAGTCACCTAGTGCAG”, the binding signal was 12100 fluorescence intensity (a.u.). “ACGAATGGTCAAACATGTGAGGAAAAGTCAACGGCGTCATCGGAGTCACCTAGTGCAG” was tested, and the binding signal was 13400 fluorescence intensity (a.u.). For “CTACAAATTTTATTTTTTTTCTTTTTGCAAGGATTTCTTTCGGAGTCACCTAGTGCAG”, the binding signal was 8900 fluorescence intensity (a.u.).
